Laboratory results reported in EP0525063B1, “Use of specific fatty acids in the manufacture of a medicament for their Iontophoresis delivery” (priority 1990, dated 1991).
Read-outs that look alike come from different tables or passages of the source.

Settings: for Steady State Delivery Rate ± sd: HM-HCl 0.1M, no enhancer
Experimental: Either pig skin or human cadaver skin was used. It was placed in the cell dermal side down.
The receptor solution completely filled the receptor compartment.
All skin was stored frozen.
Each experiment consisted of three phases totaling 66 hours. […]
The injection volume was 10 »l.

In the case of `CN1CC[C@]23c4c5ccc(O)c4O[C@H]2C(=O)CC[C@H]3[C@H]1C5.Cl` [HM-HCl, hydromorphone hydrochloride, reference compound], the “Steady State Delivery Rate ± sd” value (E/W 0/100, current 0 mA) is reported as 9 ± 2 µg/h, the “Steady State Delivery Rate ± sd” value (E/W 0/100, current 1 mA) is reported as 1235 ± 151 µg/h and the “typical iontophoretic steady state delivery rate” value (current of 1 mA, without the addition of a fatty acid, human skin or pig skin) is reported as “about 1200 »g/hr”.
